# Experimental data reported in PubChem BioAssay AID720533 (National Center for Advancing Translational Sciences (NCATS), 2013).
# “And” between values parts separate entries of the source, which are not always exact repeats. Equal values may be shown once. Out of some 18,000 compounds screened, about 750 (4.2%) were called active. The shares of active, inactive and inconclusive entries below differ from those in the screen. Calls come from the whole dose curve; tested in HEK293 cells. Potencies beside an inconclusive call are fits to weak or partial responses and may not hold up. A structure can be active in one record and inactive in another.
# Assay: qHTS for Inhibitors of binding or entry into cells for Lassa Virus
# Settings: Lassa virus pseudotyped entry inhibition, cell-based qHTS; activity change, negative = inhibition: at 49.2 µM (top of the series) unless noted
# % is set by controls: 0 for no effect and ±100 for the full control effect; potency is the fitted concentration of half-maximal effect.
Structure (SMILES),"activity change, negative = inhibition",Potency
CCCCCCCC1=Cc2ccccc2C(CC(C)=O)N1C(=O)OC (stereo not given),inconclusive: -40.6% [inhibitor] [at 8.59 µM],
CC(=O)c1ccc(F)c(-c2cc(C)cc3c2OC(CNC(=O)c2csc(C)n2)C3)c1 (stereo not given),,"inconclusive: 35.5 µM [inhibitor, single point]"
N=C(N)c1ccc(OCCCOc2ccc(C(=N)N)cc2Br)c(Br)c1,,"inconclusive: 31.6 µM [inhibitor, partial curve]"
COc1cc2c(N3CCN(C(=O)Nc4ccc(OC(C)C)cc4)CC3)ncnc2cc1OCCCN1CCCCC1,,"inconclusive: 31.6 µM [inhibitor, partial curve]"
CSc1ccccc1N1CCN(CCCCCC(=O)NC2CCCc3ccccc32)CC1 (stereo not given),,"inconclusive: 35.5 µM [inhibitor, single point]"
COc1cc(C2c3cc4c(cc3C(OC(C)=O)[C@H]3COC(=O)C23)OCO4)cc(OC)c1OC (stereo not given in full),,"inconclusive: 35.5 µM [inhibitor, partial curve, poor fit]"
COc1cccc([C@@H]2Oc3ccc(OC)cc3C(=O)[C@H]2OC(=O)Nc2cc(OC)c(OC)c(OC)c2)c1,,"inconclusive: 35.5 µM [inhibitor, single point]"
COc1ccc2c(c1OC)C(=O)O[C@H]2C1c2c(cc3c(c2OC)OCO3)CCN1C (stereo not given in full),,"inconclusive: 35.5 µM [inhibitor, single point]"
CCCCc1cc2ccccc2c(OCCN(C)C)n1,,"inconclusive: 11.2 µM [inhibitor, partial curve]"
CC(C)c1c(O)ccc2c1CCC1[C@@](C)(C=O)CCC[C@@]21C (stereo not given in full),,"inconclusive: 25.1 µM [inhibitor, single point]"
CN(C)c1nc(NC2CCC(NC(=O)c3ccc(F)c(F)c3)CC2)nc2ccccc12 (stereo not given),,active: 15.8 µM
COc1ccccc1N1CCN(c2nc(CNC(=O)C3CCOC(C)(C)C3)nc3ccccc23)CC1 (stereo not given),,"inconclusive: 35.5 µM [inhibitor, single point]"
Cc1ccccc1C(=O)Nc1ccc(C(=O)N2CCCC(O)c3cc(Cl)ccc32)c(C)c1 (stereo not given),,"inconclusive: 25.1 µM [inhibitor, partial curve, poor fit]"
O=C(O)c1ccc(OCCCOc2ccc(C(=O)O)cc2)cc1,,inactive
C=C1C(CCl)(CCl)C2(Cl)C(Cl)C(Cl)C1(Cl)C2(Cl)Cl (stereo not given),,"inconclusive: 35.5 µM [inhibitor, partial curve]"
COc1cccc([C@H]2Oc3ccc(OC)cc3C(=NO[C@H](C)c3cn([C@H](CO)Cc4ccccc4)nn3)[C@H]2O)c1,inactive: 7.72% [at 8.59 µM],
COc1ccccc1[C@@H]1C(c2ccc(F)cc2)=NN(c2ccccc2)[C@H]1C(=O)N1CCOC1=O,inactive: -24.9%,
CN(C)C(=O)C(CCN1CCC(O)(c2ccc(Cl)cc2)CC1)(c1ccccc1)c1ccccc1,,active: 31.6 µM and inactive and active: 25.1 µM
CSc1ncnc2c1ncn2C1OC(CO)C(O)C1O (stereo not given),,active: 0.355 µM
C[C@@H]1CC2C3CCC4=CC(=O)C=CC4(C)[C@@]3(F)[C@@H](O)CC2(C)[C@@]1(O)C(=O)CO (stereo not given in full),,"inconclusive: 17.8 µM [inhibitor, single point]"

Structure (SMILES),"activity change, negative = inhibition",Potency
CCN(CC)CCNC(=O)c1c(C)[nH]c(/C=C2\C(=O)Nc3ccc(F)cc32)c1C,,"inconclusive: 28.2 µM [inhibitor, single point]"
CN(C)CCO[C@@H](c1ccc(Cl)cc1)c1ccccn1,inactive: 8.6% [at 17.8 µM],
C=C1C([C@@]2(C)C(OC(C)=O)CC(=O)O[C@@](C)(COC(C)=O)C2CC(=O)OC)C(OC=O)C(OC(=O)C(O)C(C)CC)[C@]2(C)C(c3ccoc3)CC(=O)C12O (stereo not given in full),,"inconclusive: 1.41 µM [inhibitor, full curve, poor fit]"
CN1CC(O)c2cc(N=NC(N)=O)c(O)cc21 (stereo not given),inactive: -5.48%,
CCCN(CC1CC1)c1cc2c(c3c1ccn3C)C1CCC2C1 (stereo not given),,"inconclusive: 9.95 µM [inhibitor, partial curve, poor fit]"
CCCCCC(=O)N1C[C@H](n2cc(COC(=O)c3ccccc3)nn2)[C@@H](O)C[C@H]1c1ccccc1,inactive: -16%,
CCCc1c(-c2ccc(O)cc2)nn(-c2ccc(O)cc2)c1-c1ccc(O)cc1,,"inconclusive: 12.6 µM [inhibitor, full curve]"
COC(=O)CC=C[C@@H](C)[C@H](OC)c1ccccc1Br,,"inconclusive: 3.76 µM [inhibitor, single point]"
COc1cc(C2c3cc4c(cc3C(O)[C@H]3COC(=O)C23)OCO4)cc(OC)c1OC (stereo not given in full),,"inconclusive: 0.501 µM [inhibitor, full curve]"
Cc1cc(I)ccc1Nc1c(C(=O)NOCC2CC2)cc(F)c(F)c1F,,"inconclusive: 22.4 µM [inhibitor, single point]"
CCOC(=O)Nc1ccc2c(c1)N(C(=O)CN(C)C)c1ccccc1CC2,,"inconclusive: 44.7 µM [inhibitor, partial curve]"
C[C@@H]1C[C@H]2CC[C@H](O2)[C@H](C)C(=O)O[C@@H](C)C[C@@H]2CC[C@@H](O2)[C@@H](C)C(=O)O[C@H](C)C[C@H]2CC[C@H](O2)[C@H](C)C(=O)O[C@@H](C)C[C@@H]2CC[C@@H](O2)[C@@H](C)C(=O)O1,,active: 0.562 µM
CCOc1cc(OCC)c(C(=O)CCC(=O)O)cc1OCC,inactive: -18%,
COC(=O)[C@@H]1C2CC3c4[nH]c5cc(OC)ccc5c4CCN3CC2C[C@H](OC(=O)c2cc(OC)c(OC)c(OC)c2)C1OC (stereo not given in full),,"inconclusive: 31.6 µM [inhibitor, single point]"
O=C(/C=C/c1ccc(O)cc1)c1cccs1,inactive: 3.33%,
CCN(CC)CCCC(C)Nc1cc(/C=C/c2ccccc2Cl)nc2cc(Cl)ccc12 (stereo not given),,"inconclusive: 35.5 µM [inhibitor, single point]"
CN1c2ccccc2[C@@]2(O)C(=O)[C@@]1(C)[C@@H]1C=CCC[C@H]12,inactive: 3.22% [at 8.59 µM],
COc1ccc(NC(=O)C[C@H]2C(=O)N(C3CCCCC3)C[C@@H]2CSC)cc1,inconclusive: 12.8% [inhibitor],
Cc1c2ccc(N(C)c3ccnc(Nc4cccc(S(N)(=O)=O)c4)n3)cc2nn1C,inactive: -0.986%,

# Some of the entries above, reformatted:
Structure (SMILES)	activity change, negative = inhibition	Potency
CN1CC(O)c2cc(N=NC(N)=O)c(O)cc21 (stereo not given)	inactive: -5.48%	
CCCN(CC1CC1)c1cc2c(c3c1ccn3C)C1CCC2C1 (stereo not given)		inconclusive: 9.95 µM [inhibitor, partial curve, poor fit]
CCCCCC(=O)N1C[C@H](n2cc(COC(=O)c3ccccc3)nn2)[C@@H](O)C[C@H]1c1ccccc1	inactive: -16%	
CCCc1c(-c2ccc(O)cc2)nn(-c2ccc(O)cc2)c1-c1ccc(O)cc1		inconclusive: 12.6 µM [inhibitor, full curve]
COC(=O)CC=C[C@@H](C)[C@H](OC)c1ccccc1Br		inconclusive: 3.76 µM [inhibitor, single point]
COc1cc(C2c3cc4c(cc3C(O)[C@H]3COC(=O)C23)OCO4)cc(OC)c1OC (stereo not given in full)		inconclusive: 0.501 µM [inhibitor, full curve]
Cc1cc(I)ccc1Nc1c(C(=O)NOCC2CC2)cc(F)c(F)c1F		inconclusive: 22.4 µM [inhibitor, single point]
CCOC(=O)Nc1ccc2c(c1)N(C(=O)CN(C)C)c1ccccc1CC2		inconclusive: 44.7 µM [inhibitor, partial curve]
C[C@@H]1C[C@H]2CC[C@H](O2)[C@H](C)C(=O)O[C@@H](C)C[C@@H]2CC[C@@H](O2)[C@@H](C)C(=O)O[C@H](C)C[C@H]2CC[C@H](O2)[C@H](C)C(=O)O[C@@H](C)C[C@@H]2CC[C@@H](O2)[C@@H](C)C(=O)O1		active: 0.562 µM
CCOc1cc(OCC)c(C(=O)CCC(=O)O)cc1OCC	inactive: -18%	
COC(=O)[C@@H]1C2CC3c4[nH]c5cc(OC)ccc5c4CCN3CC2C[C@H](OC(=O)c2cc(OC)c(OC)c(OC)c2)C1OC (stereo not given in full)		inconclusive: 31.6 µM [inhibitor, single point]
O=C(/C=C/c1ccc(O)cc1)c1cccs1	inactive: 3.33%	
CCN(CC)CCCC(C)Nc1cc(/C=C/c2ccccc2Cl)nc2cc(Cl)ccc12 (stereo not given)		inconclusive: 35.5 µM [inhibitor, single point]
CN1c2ccccc2[C@@]2(O)C(=O)[C@@]1(C)[C@@H]1C=CCC[C@H]12	inactive: 3.22% [at 8.59 µM]	
COc1ccc(NC(=O)C[C@H]2C(=O)N(C3CCCCC3)C[C@@H]2CSC)cc1	inconclusive: 12.8% [inhibitor]	

# Further records.

Structure (SMILES),"activity change, negative = inhibition",Potency
COc1cccc2c1C(=O)c1c(O)c3c(c(O)c1C2=O)C[C@@](O)(C(=O)CO)C[C@@H]3O[C@H]1C[C@H](N)[C@H](O)[C@H](C)O1,,active: 20 µM
CCOC(=O)C1=C[C@@]2(CC)CCCN3CCc4c(n1c1ccccc41)C32 (stereo not given in full),inactive: -6.76%,
C=C1CCC[C@]2(C)C[C@H]3OC(=O)[C@H](CNCCc4ccccc4OC)C3CC12 (stereo not given in full),,"inconclusive: 17.8 µM [inhibitor, single point]"
COc1ccc(CN2C[C@H](Sc3nc4ccccc4[nH]3)C[C@H]2C(=O)N2CCCN(C)CC2)cc1C,,"inconclusive: 35.5 µM [inhibitor, single point]"
CC1(C)C(=O)C=C[C@@]2(C)C1=C(O)C(=O)[C@@]1(C)C2CC[C@@]2(C)C(c3ccoc3)C[C@H]3O[C@@]321 (stereo not given in full),,active: 11.2 µM
COc1ccc([C@H]2C[C@@H](O)[C@H](n3cc(-c4ccc(F)cc4)nn3)CN2Cc2cccs2)cc1,,"inconclusive: 22.3 µM [inhibitor, partial curve, poor fit]"
Nc1nc(Cl)nc2c1ncn2[C@H]1C[C@H](O)[C@@H](CO)O1,,"inconclusive: 11.2 µM [inhibitor, partial curve] and inconclusive: 22.4 µM [inhibitor, single point]"
C[C@H]1CCC/C=C/[C@@H]2C[C@H](O)C[C@H]2[C@H](O)/C=C/C(=O)O1,,active: 1.12 µM
COC(=O)C1=C(C)NC(C)=C(C(=O)OCC(C)=O)C1c1ccccc1[N+](=O)[O-] (stereo not given),,"inconclusive: 14.1 µM [inhibitor, full curve, poor fit]"
CCn1nc(C)cc1C(=O)NCCN1Cc2ccccc2OC(c2ccccc2F)C1 (stereo not given),,"inconclusive: 35.5 µM [inhibitor, single point]"
CN1CCc2c(c3ccccc3n2Cc2ccccc2)C1,,"inconclusive: 20 µM [inhibitor, partial curve, poor fit]"
O=C(O)c1cc(O)c2c(c1)C(=O)c1cccc(O)c1C2=O,inactive: -1.81%,
COc1ccccc1C(=O)Nc1cccc(N2CCC(NCc3cnn(-c4ccccc4)n3)CC2)c1,,"inconclusive: 35.5 µM [inhibitor, single point]"
CC1(C)C(\C=C/C=C\C=C/C=C2/N(CCCCS(=O)(=O)O)c3ccc4ccccc4c3C2(C)C)=[N+](CCCCS(=O)(=O)[O-])c2ccc3ccccc3c21,,"inconclusive: 15.8 µM [inhibitor, partial curve, poor fit]"
C[C@H](CO)NS(=O)(=O)c1cc(Cl)ccc1F,inactive: 9.35%,
COc1cc2oc(=O)cc(-c3cccc(-c4ccc(C(C)=O)cc4)c3)c2c(OC)c1OC,,"inconclusive: 14.1 µM [inhibitor, partial curve]"
COc1ccc(/C=C/C(=O)O)cc1OC,,inactive
O=S1(=O)C[C@@H](N2CCN(c3ccccc3)CC2)[C@H](COCc2ccccc2)N1,inactive: -12.9%,
CCCCC(=O)O[C@H]1CC[C@H]2[C@@H]3CCc4cc(O)ccc4[C@H]3CC[C@]12C,,"inconclusive: 31.6 µM [inhibitor, partial curve, poor fit]"
